Experimental data: PubChem BioAssay AID1259284 (Sanger Institute, 2017)

- Test: 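Kinase knock-downs that cut colorectal cancer cell growth alone or with targeted drugs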 (primary screen)
- Cell system: SW48 human colorectal cancer cells
- Knock-down reagent: siRNA pool against human genes
- Conditions: anchor drug BYL719 at 1 µM, cetuximab at 5 µg/ml or trametinib at 10 nM, or DMSO vehicle alone
- Measured: 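Cell viability relative to non-targeting pool wells, replicate mean, with robust z-scores and drug synergy scores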
- Reading the numbers: robust z-score, no drug: higher = more cells survive knock-down
- Rule for the call: 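a knock-down is essential if viability without drug gives a robust z-score under -3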
- Meaning of the calls: active = essential without drug; inactive = no change without drug
In all, the deposit lists 794 reagents; this is an unselected part. Over the whole deposit, 16 (2%) are marked active. 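Calls concern knock-down without drug only; drug synergy was judged apart, with scores above 0.15 taken as synergy.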 A number with no mark means an inactive call. Not all columns of the deposit are shown. Not stated in the record: the amount of reagent, the time to read-out.

Gene	robust z-score, no drug
CLK2 (CDC like kinase 2)	0.426
ITPKB (inositol-trisphosphate 3-kinase B)	0.426
NEK8 (NIMA related kinase 8)	-2.11
OBSCN	0.426
LRRK2 (leucine rich repeat kinase 2)	0.426
CLK4 (CDC like kinase 4)	0.426
PIP5K1B (phosphatidylinositol-4-phosphate 5-kinase type 1 beta)	-2.14
CHUK	0.426

A stretch of the results above:
Gene	robust z-score, no drug
LRRK2 (leucine rich repeat kinase 2)	0.426
CLK4 (CDC like kinase 4)	0.426

Continued.
Gene	robust z-score, no drug
STK24 (serine/threonine kinase 24)	0.426
TYK2 (tyrosine kinase 2)	0.426
ACVR1C (activin A receptor type 1C)	0.426
SRGAP3 (SLIT-ROBO Rho GTPase activating protein 3)	0.426
CKM (creatine kinase, M-type)	0.426
TJP2 (tight junction protein 2)	0.157
CREBBP (CREB binding lysine acetyltransferase)	0.426
EPHA5 (EPH receptor A5)	0.426
NEK5 (NIMA related kinase 5)	0.426
CALM3 (calmodulin 3)	-0.0219
KMT2B (lysine methyltransferase 2B)	0.426
FLT1 (fms related receptor tyrosine kinase 1)	0.414
